Reference: article PMC12343779
Results are given in words; binding and its absence hold for the method and conditions named. In cells and extracts the contact can be indirect. Some results given as binding are weak or reduced against the parent protein; the word gives no strength. One block for each molecule: values may come before it.

Chains of the proteins cited; added tags and fusions are not shown. Residues count along the entry.
UniProt Q63722, residues 34-1219: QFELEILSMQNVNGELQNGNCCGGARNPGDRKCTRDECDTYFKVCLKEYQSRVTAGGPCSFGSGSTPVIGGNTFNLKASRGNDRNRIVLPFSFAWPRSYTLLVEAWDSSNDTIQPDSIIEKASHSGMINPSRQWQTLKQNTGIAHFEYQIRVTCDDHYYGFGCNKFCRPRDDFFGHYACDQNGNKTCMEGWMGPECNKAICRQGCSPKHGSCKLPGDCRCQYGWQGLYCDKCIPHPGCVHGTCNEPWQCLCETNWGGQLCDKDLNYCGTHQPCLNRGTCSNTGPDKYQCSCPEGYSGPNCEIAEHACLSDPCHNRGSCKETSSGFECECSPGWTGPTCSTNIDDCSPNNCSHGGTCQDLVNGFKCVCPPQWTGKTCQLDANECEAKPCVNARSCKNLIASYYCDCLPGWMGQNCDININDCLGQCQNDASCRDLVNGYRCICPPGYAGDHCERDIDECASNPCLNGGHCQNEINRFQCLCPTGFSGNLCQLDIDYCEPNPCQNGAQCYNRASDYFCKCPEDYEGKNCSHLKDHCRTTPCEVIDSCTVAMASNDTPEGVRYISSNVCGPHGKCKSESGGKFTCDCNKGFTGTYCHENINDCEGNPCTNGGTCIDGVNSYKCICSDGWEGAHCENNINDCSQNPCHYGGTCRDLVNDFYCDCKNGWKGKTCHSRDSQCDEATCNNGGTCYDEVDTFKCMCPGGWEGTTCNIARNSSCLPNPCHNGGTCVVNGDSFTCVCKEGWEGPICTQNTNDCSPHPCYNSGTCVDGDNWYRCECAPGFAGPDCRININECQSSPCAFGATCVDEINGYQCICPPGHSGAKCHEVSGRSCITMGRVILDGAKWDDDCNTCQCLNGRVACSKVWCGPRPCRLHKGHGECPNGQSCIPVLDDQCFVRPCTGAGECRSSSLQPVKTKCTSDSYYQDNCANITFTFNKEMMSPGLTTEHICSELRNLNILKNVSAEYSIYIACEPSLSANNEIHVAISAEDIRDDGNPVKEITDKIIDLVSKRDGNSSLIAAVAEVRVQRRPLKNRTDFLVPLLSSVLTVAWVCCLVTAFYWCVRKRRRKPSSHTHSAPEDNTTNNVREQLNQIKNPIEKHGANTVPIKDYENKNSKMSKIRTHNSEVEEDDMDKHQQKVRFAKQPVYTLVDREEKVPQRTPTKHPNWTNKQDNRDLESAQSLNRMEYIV
UniProt G3V7W1: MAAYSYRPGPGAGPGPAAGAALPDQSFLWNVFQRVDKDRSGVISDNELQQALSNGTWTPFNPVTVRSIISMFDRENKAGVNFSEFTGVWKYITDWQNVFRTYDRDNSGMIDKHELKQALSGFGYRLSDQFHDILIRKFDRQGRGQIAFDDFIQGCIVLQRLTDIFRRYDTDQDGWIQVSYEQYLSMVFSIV

Legend:
Assay in all cases: co-IP; endogenous proteins in rat liver tissue lysate; 1 ug antibody or IgG on protein A+G magnetic beads, overnight at 4 °C; washed with lysis buffer; eluate read by Western blot
[1] = target: T1, Alix (rat (endogenous in rat liver tissue)) (UniProt Q9QZA2)
T1 sequence: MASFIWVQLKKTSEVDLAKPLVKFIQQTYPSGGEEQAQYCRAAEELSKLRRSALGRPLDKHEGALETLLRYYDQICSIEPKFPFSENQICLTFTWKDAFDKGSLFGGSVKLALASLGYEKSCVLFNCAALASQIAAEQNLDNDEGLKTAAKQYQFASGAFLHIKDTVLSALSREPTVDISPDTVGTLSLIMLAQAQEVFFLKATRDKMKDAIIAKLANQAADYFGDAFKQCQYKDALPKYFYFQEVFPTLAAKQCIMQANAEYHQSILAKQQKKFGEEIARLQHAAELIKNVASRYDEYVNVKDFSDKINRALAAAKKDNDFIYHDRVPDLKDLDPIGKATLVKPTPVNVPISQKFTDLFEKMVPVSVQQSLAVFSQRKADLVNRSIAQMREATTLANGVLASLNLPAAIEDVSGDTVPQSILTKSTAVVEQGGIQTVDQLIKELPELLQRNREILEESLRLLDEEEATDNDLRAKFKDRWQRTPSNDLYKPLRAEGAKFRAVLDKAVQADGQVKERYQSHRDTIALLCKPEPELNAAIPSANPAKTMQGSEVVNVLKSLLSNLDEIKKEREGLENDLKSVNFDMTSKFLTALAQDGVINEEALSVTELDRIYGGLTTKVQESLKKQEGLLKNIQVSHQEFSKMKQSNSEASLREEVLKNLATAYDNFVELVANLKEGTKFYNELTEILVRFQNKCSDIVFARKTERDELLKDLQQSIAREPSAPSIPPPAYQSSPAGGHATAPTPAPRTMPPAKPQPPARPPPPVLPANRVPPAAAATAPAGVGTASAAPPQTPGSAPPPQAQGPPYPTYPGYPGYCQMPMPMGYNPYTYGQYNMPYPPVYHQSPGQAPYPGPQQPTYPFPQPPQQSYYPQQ

[2] = target: JAG1 (rat (endogenous in rat liver tissue)) (UniProt Q63722)
[3] = target: ALG-2 (rat (endogenous in rat liver tissue)) (UniProt G3V7W1)

- binding [1]: binds
- binding [2]: binds
Molecule: ALG-2 (from UniProt G3V7W1 1-191)

- binding [3]: binds
- binding [2]: binds
B1: SEC31A (protein, UniProt Q9Z2Q1 1-1249)
chain: MKLKEIDRTAMQAWSPAQNHPIYLATGTSAQQLDATFSTNASLEIFELDLSDPSLDMKSCATFSSSHRYHKLIWGPHKMDSKGDVSGVLIAGGENGNIILYDPSKIIAGDKEVVIAQKDKHTGPVRALDVNIFQTNLVASGANESEIYIWDLNNFATPMTPGAKTQPPEDISCIAWNRQVQHILASASPSGRATVWDLRKNEPIIKVSDHSNRMHCSGLAWHPDVATQMVLASEDDRLPVVQMWDLRFASSPLRVLENHARGILAIAWSMADPELLLSCGKDAKILCSNPNTGEVLYELPTNTQWCFDIQWCPRNPAVLSAASFDGRIRVYSIMGGSIDGLRQKQVDKLSSSFGNLDPFGTGQPLPPLQIPQQTSQHSIVLPLKKPPKWIRRPVGASFSFGGKLVTFENVTGQPQQGAEQPRRQPVFISQVVTEKDFLSRSEQLQHVVQSQGFISYCQKKIDASQTDFEKNVWSFLKVNFEEDSRGKYLELLGYRREDLGEKIALALNRVDGSDVALKDSDRVAQSDGEESPAEEGQLLGERIKEEKQECDFLPSAGGGTFNISVSGDIDGLITRALLTGNFESAVDLCLHDNRMADAIILAIAGGQELLAQTQKKYFAKSQSKITRLITAVVMKNWKEIVESCDLKNWREALAAVLTYAKPDEFSALCDLLGARLESEGDSLLRTQACLCYICAGNVERLVACWTKAQDGSNPLSLQDLIEKVVILRKAVQLTQALDTNTVGALLAEKMSQYANLLAAQGSIAAALAFLPDNTNQPDIVQLRDRLCRAQGRSVPGQESSRSSYEGQPLPKGGPGPLAGHPQVSRVQSQQYYPQVRIAPTVTTWSDRTPTALPSHPPAACPSDTQGGNPPPPGFIMHGNVVPNSPAPLPTSPGHMHSQPPPYPQPQPYQPAQQYSLGTGGSAVYRPQQPVAPPASKRYPNAPYVSPVASYSGQPHMYTAQPASSPTSSSAPLPPPPSSGASFQHGGPGAPPSSSAYALPPGTTGTPPAASELPASQRTGPQNGWNDPPALNRVPKKKKLPENFMPPVPITSPIMNPGGDPQPQGLQQQPSASGPRSSHASFPQPHLAGGQPFHGIQQPLAQTGMPPSFSKPNTEGAPGAPIGNTIQHVQALPTEKITKKPIPDEHLILKTTFEDLIQRCLSSATDPQTKRKLDDASKRLECLYDKLRDQTLSPTIISGLHSIARSIETRNYSEGLTVHTHIVSTSNFSETSAFMPVLKVVLSQASKLGV
